## Primary screen of a compound library

By UniProt entry, the sequences of proteins in these tests, tags left out. Residues count along the entry.
UniProt I6X8D2, whole entry: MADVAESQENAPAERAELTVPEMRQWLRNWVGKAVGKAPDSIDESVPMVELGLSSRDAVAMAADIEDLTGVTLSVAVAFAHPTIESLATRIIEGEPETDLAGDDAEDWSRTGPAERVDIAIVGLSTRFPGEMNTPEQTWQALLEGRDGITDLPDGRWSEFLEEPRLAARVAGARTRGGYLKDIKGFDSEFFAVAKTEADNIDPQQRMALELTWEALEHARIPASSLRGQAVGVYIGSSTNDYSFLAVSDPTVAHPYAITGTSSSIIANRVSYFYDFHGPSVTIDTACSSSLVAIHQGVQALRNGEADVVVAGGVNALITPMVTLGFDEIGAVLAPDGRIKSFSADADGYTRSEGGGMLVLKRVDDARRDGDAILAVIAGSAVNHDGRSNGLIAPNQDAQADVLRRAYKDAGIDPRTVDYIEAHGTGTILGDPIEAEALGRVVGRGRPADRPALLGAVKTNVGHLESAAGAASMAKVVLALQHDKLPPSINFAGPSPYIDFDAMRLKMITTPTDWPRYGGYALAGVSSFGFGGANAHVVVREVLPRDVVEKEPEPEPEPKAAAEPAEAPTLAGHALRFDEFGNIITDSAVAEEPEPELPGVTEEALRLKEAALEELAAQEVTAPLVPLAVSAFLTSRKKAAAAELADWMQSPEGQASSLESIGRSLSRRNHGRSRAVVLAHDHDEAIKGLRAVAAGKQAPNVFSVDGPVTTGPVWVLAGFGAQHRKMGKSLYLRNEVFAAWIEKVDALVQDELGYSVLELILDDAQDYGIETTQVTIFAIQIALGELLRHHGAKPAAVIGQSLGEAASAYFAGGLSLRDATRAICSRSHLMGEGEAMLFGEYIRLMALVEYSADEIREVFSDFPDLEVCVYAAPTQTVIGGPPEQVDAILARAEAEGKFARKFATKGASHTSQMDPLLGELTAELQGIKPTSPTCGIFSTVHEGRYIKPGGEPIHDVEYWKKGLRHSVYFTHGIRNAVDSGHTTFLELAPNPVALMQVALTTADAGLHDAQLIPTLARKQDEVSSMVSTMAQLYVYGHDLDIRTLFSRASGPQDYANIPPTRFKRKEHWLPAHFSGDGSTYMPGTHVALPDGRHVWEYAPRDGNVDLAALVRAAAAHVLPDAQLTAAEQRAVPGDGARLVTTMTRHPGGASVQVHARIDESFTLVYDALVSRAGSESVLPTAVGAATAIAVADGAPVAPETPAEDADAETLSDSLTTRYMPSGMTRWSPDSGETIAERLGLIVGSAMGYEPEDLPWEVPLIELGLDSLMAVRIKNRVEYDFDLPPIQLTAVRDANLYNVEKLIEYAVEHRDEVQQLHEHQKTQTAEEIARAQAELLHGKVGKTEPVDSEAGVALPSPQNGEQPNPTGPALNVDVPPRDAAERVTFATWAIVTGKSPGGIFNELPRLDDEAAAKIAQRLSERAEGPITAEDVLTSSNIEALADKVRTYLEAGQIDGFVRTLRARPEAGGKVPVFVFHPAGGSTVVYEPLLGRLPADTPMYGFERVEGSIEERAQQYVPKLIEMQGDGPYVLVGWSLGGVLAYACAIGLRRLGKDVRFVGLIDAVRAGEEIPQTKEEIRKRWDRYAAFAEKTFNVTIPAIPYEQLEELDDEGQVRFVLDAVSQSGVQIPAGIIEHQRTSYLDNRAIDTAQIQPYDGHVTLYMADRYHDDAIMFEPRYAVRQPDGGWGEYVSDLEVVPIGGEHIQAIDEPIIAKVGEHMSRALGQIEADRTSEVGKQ
UniProt P9WFT3, whole entry: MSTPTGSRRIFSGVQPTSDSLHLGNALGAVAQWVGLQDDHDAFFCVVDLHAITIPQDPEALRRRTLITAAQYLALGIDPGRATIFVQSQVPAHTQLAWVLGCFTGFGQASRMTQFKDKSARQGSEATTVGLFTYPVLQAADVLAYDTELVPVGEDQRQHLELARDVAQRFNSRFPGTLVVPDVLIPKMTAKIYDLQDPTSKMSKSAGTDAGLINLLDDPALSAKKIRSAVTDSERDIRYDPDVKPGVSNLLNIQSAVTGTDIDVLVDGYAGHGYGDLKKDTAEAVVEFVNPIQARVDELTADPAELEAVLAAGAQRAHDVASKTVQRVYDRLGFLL
UniProt P9WNZ1, whole entry: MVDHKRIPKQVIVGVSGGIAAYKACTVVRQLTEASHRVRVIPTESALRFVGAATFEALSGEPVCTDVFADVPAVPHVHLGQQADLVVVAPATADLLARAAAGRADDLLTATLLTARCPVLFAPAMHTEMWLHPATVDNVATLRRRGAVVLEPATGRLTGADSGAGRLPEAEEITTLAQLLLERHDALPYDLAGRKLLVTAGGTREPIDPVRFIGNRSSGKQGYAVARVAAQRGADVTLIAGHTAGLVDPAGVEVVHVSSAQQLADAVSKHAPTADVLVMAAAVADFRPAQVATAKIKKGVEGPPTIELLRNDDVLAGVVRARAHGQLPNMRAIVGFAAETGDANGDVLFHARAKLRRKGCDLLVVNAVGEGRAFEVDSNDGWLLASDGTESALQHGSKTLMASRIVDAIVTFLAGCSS
UniProt Q8IDJ8, 1-583: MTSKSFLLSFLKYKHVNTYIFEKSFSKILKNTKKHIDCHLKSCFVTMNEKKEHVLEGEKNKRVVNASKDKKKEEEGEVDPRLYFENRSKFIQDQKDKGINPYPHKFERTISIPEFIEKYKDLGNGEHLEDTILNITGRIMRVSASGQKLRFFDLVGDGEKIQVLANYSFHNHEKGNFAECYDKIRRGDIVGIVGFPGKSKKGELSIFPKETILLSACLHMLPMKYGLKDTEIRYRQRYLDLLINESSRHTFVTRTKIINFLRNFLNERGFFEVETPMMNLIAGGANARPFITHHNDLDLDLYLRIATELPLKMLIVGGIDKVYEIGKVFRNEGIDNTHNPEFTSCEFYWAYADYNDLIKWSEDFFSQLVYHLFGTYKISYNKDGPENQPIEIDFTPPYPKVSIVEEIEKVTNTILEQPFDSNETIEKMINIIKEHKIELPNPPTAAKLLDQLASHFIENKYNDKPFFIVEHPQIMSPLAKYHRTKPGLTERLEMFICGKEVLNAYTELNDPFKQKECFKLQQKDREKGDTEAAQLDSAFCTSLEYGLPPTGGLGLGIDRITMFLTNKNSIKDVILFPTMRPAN

Data taken from ChEMBL document CHEMBL3988442, “University of Dundee, Small-Polar-MMV Screening Library” (2021).

Pks13 thioesterase: 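Polyketide synthase Pks13, Mycobacterium tuberculosis (UniProt I6X8D2). Enzyme assay of the thioesterase domain of polyketide synthase 13; the read-out is not stated. Compounds at 30 µM. The record gives no direction; the compounds picked for IC50 retests had high values, so higher reads as stronger inhibition. Of about 67,000 compounds tested this way, about 300 (0.46%) reached 50% or more in at least one test.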
MtTrpRS: 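Enzyme assay of tryptophanyl-tRNA synthetase; the read-out is not stated. Target: Tryptophan-tRNA ligase, Mycobacterium tuberculosis (UniProt P9WFT3). Compounds at 10 µM. Higher most likely means stronger inhibition; the record gives no direction and few retests gave an IC50. About 65,000 compounds were tested under these conditions; 0.098% (about 64) showed 50% or more at least once.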
CoaBC: 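Coenzyme A biosynthesis protein CoaBC, Mycobacterium tuberculosis (UniProt P9WNZ1). Enzyme assay of CoaBC with a phosphate dye (Biomol Green) read at 650 nm. Tested at 30 µM. Higher reads as stronger inhibition, judged from the few compounds that gave an IC50. Most strong results did not repeat in a second test. Of about 67,000 compounds tested this way, about 40 (0.06%) reached 50% or more in at least one test.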
PfKRS1: 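Lysine-tRNA ligase, Plasmodium falciparum 3D7 (UniProt Q8IDJ8). Enzyme assay of the cytosolic lysyl-tRNA synthetase in 384-well plates, read by luminescence. Compounds at 30 µM. Direction is inferred from only a few compounds that gave an IC50; most scored high, so higher reads as stronger inhibition. About 69,000 compounds were tested under these conditions; 0.071% (about 49) showed 50% or more at least once.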

The filed quantity is “Percent Effect” (%). The controls that fix the scale are not given in the record; negative values are as filed. This is an unselected part of the compounds tested. Two or more numbers in one place are separate tests of the same structure; such repeats can differ widely. A dash means the value is not listed here; it may have been measured.

SMILES | Pks13 thioesterase | MtTrpRS | CoaBC | PfKRS1
O=C(NC[C@H]1OC[C@@H](NC2CCCC2)[C@@H]1O)C1CCCC1 | 6.702 | 16.16 | 6.843 | -6.406
CC(C)(C)c1nc(CN(Cc2cccs2)C2CCS(=O)(=O)C2)no1 (stereo not shown) | -5.797 | -0.8772 | 5.509 | 2.657
COCCN(C)c1ccc(NCc2cccnc2)nc1 | 14.45 | 2.786 | - | 3.194
CC(=O)N1N=C(c2ccccc2)OC1C(=O)NCCc1ccc(C)cc1 (stereo not shown) | 0.08338 | - | 3.641 | 4.305
CSCC(CCO)NC(=O)c1cccc(F)c1Cl (stereo not shown) | 10.32 | -2.305 | 0.8861 | 1.959
Cc1cccc2c1nc(COCC(=O)O)n2-c1cnc(N)cn1 | 37.27 | 0.0849 | 4.925 | 3.17
CCOC(=O)CCC(=O)N1CCC(Oc2ccc(C(F)(F)F)cn2)CC1 | -12.37 | -2.536 | 4.689 | 4.565
COc1ccc(CN)c(OC(F)F)c1 | -10.13 | -10.11 | 0.8 | 5.76
CN(Cc1cc[nH]n1)C(=O)c1cn(Cc2ccccc2Cl)nn1 | -11.61 | -2.309 | 2.83 | 5.149
Cn1cc(CN2C[C@@H]3COC[C@]3(CNC(=O)c3ccccc3)C2)cn1 | -7.191 | 3.043 | 5.263 | 6.647
O=C(CCNc1ncccn1)NCCOc1ccc2c(c1)CCC2 | -8.958 | -0.6823 | 12.19 | 2.801
Cc1ncc(CNC(=O)CCOc2ccccc2)c(C2CCCN2C)n1 (stereo not shown) | -32.24 | -1.421 | -1.944 | 1.424
CC(=O)c1cc2ncc(C(=O)NC3CC3)cc2[nH]1 | -34.62 | - | 1.214 | -2.919
OC(CN(Cc1ccccc1)Cc1ccncc1)c1cccs1 (stereo not shown) | -22.82 | -2.347 | 8.811 | 6.524
CN(C)C(=O)c1cccc(NC(=O)c2cnn(C)c2)c1 | -7.301 | -6.197 | 0.6424 | 1.585
Cc1ccc2c(c1)C(=O)NCC1(CCN(C(=O)c3cc(C)no3)CC1)O2 | -4.467 | - | 9.046 | 0.08367
COc1ccc(-c2noc([C@@H](C)NC(=O)CC(C)C)c2C(=O)O)cc1 | -30.87 | 1.593 | 1.987 | 3.38
Cc1nc(N2CCN(C(=O)c3ccccc3)CC2)c2cnn(C)c2n1 | -2.309 | -6.635 | -3.509 | 2.267
CS(=O)(=O)N1CC[C@H]2O[C@H](C(=O)NCCc3ccncc3)CC[C@H]21 | -12.67 | 4.722 | 0.3807 | -2.278
Cc1nn(C)c2c(NC3CCCC3)nc(C3CC3)nc12 | 5.946 | 0.0809 | -29.69 | 1.022
CCn1cnnc1CNC(=O)N(C)Cc1cccc(OC(F)F)c1 | -7.487 | -4.212 | 6.087 | -0.8541
Cc1cccc(CNCc2c(C)nn(C)c2N2CCOCC2)n1 | -0.6526 | 4.49 | 8.742 | 5.413
CCc1nc(C)c(C2CC(=O)Nc3c2c(C(C)(C)C)nn3C)[nH]1 (stereo not shown) | 7.17 | -4.211 | 0.4274 | 0.7235
CCN(C)c1ncnc2c1CCN(C(=O)Cc1ccccn1)CC2 | -0.7205 | 0.6916 | 5.514 | -0.4238
CC(=O)NCC(=O)N1Cc2nccn2CC(CN2CCCC2)C1 (stereo not shown) | -16.71 | 0.6103 | 6.941 | 3.015
CCOCC(=O)NCCC(O)c1ccoc1 (stereo not shown) | -8.17 | 1.607 | 2.299 | 0.1184
NC(=O)N1CCC2(CC1)CN(c1ccsc1)C(=O)CO2 | -20.02 | -5.11 | 10.58 & 22.54 | -3.277
O=C(O)CCc1cc2n(n1)CCCN(C(=O)c1ccc(Cl)s1)C2 | 16.96 | 2.977 | 0 | 0.8098
O=S(=O)(NCCCn1cncn1)c1ccc2c(c1)OCCCO2 | -9.812 | 0.9266 | 16.45 | -0.4243
CCc1nc2n(n1)CC(NCC(=O)Nc1cc(C(C)(C)C)no1)CC2 (stereo not shown) | -10.79 | -3.483 | 8.418 | -0.4877
CCCN1CCN(C(=O)c2ccc3ccccc3n2)[C@H]2CS(=O)(=O)C[C@H]21 | 11.57 | -0.486 | 5.952 | 6.588
CS(=O)(=O)N1CC[C@]2(C[C@@H](Oc3ccccn3)CO2)C1 | -29.16 | -3.761 | 5.447 | 0.7763
CN(CCc1ccccc1)Cc1cnc(C2(C)CCCCO2)nc1 (stereo not shown) | - | -7.652 | 1.726 | -0.9198
Cc1nc(N(C)C)nc(N(C)Cc2cnccn2)c1C | -7.269 | 6.755 | 8.43 | 7.867
CN1CC2(COCCN(C(=O)c3ccco3)C2)OCC1=O (stereo not shown) | -6.883 | -3.463 | 4.188 | 2.919
Cn1nc(Cn2cccn2)c2c1CN(C1CCOCC1)C2 | -14.29 | -5.951 | 6.314 | 5.932
CS(=O)(=O)N1CC[C@H]2OCC[C@@]2(C(=O)NCC2CC2)C1 | -21.71 | - | 1.235 | 3.342
COc1ncc(Cl)c(NCc2ccc(C(=O)N(C)C)cc2)n1 | 0.4859 | -5.393 | -1.737 | 3.086
COc1cccc(N2CCN(Cc3nccc(OC)c3OC)CC2=O)c1 | -9.072 | -2.254 | 2.814 | 1.079
Fc1cccc(CN2CCC(c3noc(-c4ccncc4)n3)CC2)c1F | 10.4 | -4.606 | 10.49 | -0.07628
CNc1cncc(C2CCCN2Cc2c[nH]cn2)n1 (stereo not shown) | 3.65 | -0.4167 | 3.01 | 8.31
CC(C)OCCC(=O)NS(=O)(=O)N1CCOc2ccccc21 | -11.82 | 3.317 | -18.49 | 4.076
CS(=O)(=O)N1CCC(CNC(=O)C2CCC2)CC1 | -0.6195 | 0 | 8.015 | -3.257
COCCC(Cc1cccc(Br)c1)C(=O)NCC(N)=O (stereo not shown) | -24.24 | -1.54 | 12.03 | 3.554
Cc1cc(C)c(CNC(=O)N(C)Cc2nnc3n2CCC3)c(=O)[nH]1 | 4.934 | -2.861 | 3.926 | 5.882
CC(=O)N1CCc2c(nc(N(C)C)nc2NCCC2CCCCO2)C1 (stereo not shown) | -28.73 | 0.1805 | -0.2049 | 7.463
Cc1cc(C)nc(N2CCC(Cn3cc(C(N)=O)cn3)CC2)n1 | -0.5128 | -3.732 | 3.942 | 1.053
COCCCNS(=O)(=O)c1cc(Br)sc1C | -28.48 | 1.652 | -2.981 | 5.254
CC(C)CS(=O)(=O)CC(=O)NC(C)(C)c1cccc(F)c1 | -13.89 | -1.358 | 2.451 | 0.709
COc1cccc(-c2cc(CN)ccc2F)c1F | -27.63 | -5.924 | -33.76 | 8.724
O=C1CCN(C(=O)NCc2cccc(Oc3ccccc3)c2)CCN1 | -25.16 | -1.961 | -11.16 | 6.695
CS(=O)(=O)CCSC1CCN(c2ccccc2F)C1=O (stereo not shown) | -7.789 | 4.106 | 2.073 | 0.8596
CC(=O)Nc1nc(CN2CCCCC2Cn2cccn2)cs1 (stereo not shown) | -39.01 | -4.343 | 2.564 | 8.276
CSCCC(CO)NC(=O)c1ccc2[nH]/c(=N\S(C)(=O)=O)sc2c1 (stereo not shown) | -0.3157 | 1.929 | 2.309 | 9.94
Cn1cc(C2CCCN2Cc2csc(C3CCCC3)n2)cn1 (stereo not shown) | -6.748 | -4.699 | 2.887 | 0.4999
Cc1ccc(CNC(=O)c2cc(Cn3ccnc3C(C)C)[nH]n2)o1 | -10.69 | -1.111 | 0.5089 | 2.1
Fc1cccc(CN2CCN(Cc3cscn3)CC2)c1 | -9.987 | -0.5696 | 4.968 | 19.57
CCCNC(=O)c1cnc2n1CCCC2 | 7.875 | 1.891 | 1.84 | -1.802
CCCc1nnsc1C(=O)N1CCCC1(C)C(=O)N1CCOCC1 (stereo not shown) | 1.327 | -8.104 | -0.1227 | 1.559
O=c1ncn(-c2ccccc2F)c2ncccc12 | -14.06 | -1.55 | 0.4474 | 4.139
CNC(=O)NC(=O)CCSc1ccccc1C | -8.331 | -0.6606 | 0.4969 | 2.519
Cc1ccc([C@@H]2CN(C(=O)c3cc(C)n[nH]3)C[C@H]2NC(=O)C2CC2)cc1 | 11.94 | -2.43 | 4.365 | 8.104
COCC(=O)NC[C@H]1CC[C@H](c2ccnc3ncnn32)CC1 | 2.017 | -5.639 | -5.226 | 4.155
Cn1ccnc1COc1ccc(NC(=O)C2CCCO2)cc1 (stereo not shown) | -47.82 | 6.286 | 9.091 | -3.654
c1ccc(N2CC[C@@H]3CN(Cc4ccncc4)CCO[C@@H]3C2)cc1 | 3.824 | -3.968 | -20.98 | 6.639
CCn1cc(N)c(C(=O)NCc2cnn(C)c2)n1 | -2.114 | -2.237 | -8.182 | -1.641
O=C(O)c1ccc(CN2CCC(c3ccnc4ccnn34)CC2)cc1 | 4.354 | 0 | 2.101 | 2.234
Cc1cnc(CNC(=O)N(Cc2ccccc2)CC(C)(C)O)s1 | -25.97 | 0.3894 | -0.3165 | 5.169

Some entries from above, unchanged:

SMILES,Pks13 thioesterase,MtTrpRS,CoaBC,PfKRS1
CNC(=O)NC(=O)CCSc1ccccc1C,-8.331,-0.6606,0.4969,2.519
COCCC(Cc1cccc(Br)c1)C(=O)NCC(N)=O (stereo not shown),-24.24,-1.54,12.03,3.554
Cc1cc(C)nc(N2CCC(Cn3cc(C(N)=O)cn3)CC2)n1,-0.5128,-3.732,3.942,1.053
CC(C)OCCC(=O)NS(=O)(=O)N1CCOc2ccccc21,-11.82,3.317,-18.49,4.076
Cc1ncc(CNC(=O)CCOc2ccccc2)c(C2CCCN2C)n1 (stereo not shown),-32.24,-1.421,-1.944,1.424
Cc1ccc2c(c1)C(=O)NCC1(CCN(C(=O)c3cc(C)no3)CC1)O2,-4.467,-,9.046,0.08367